Consider one molecule from publication PMC6763788.

The target in this experiment is T1, Flag-RITA (UniProt Q96K30).
T1 sequence: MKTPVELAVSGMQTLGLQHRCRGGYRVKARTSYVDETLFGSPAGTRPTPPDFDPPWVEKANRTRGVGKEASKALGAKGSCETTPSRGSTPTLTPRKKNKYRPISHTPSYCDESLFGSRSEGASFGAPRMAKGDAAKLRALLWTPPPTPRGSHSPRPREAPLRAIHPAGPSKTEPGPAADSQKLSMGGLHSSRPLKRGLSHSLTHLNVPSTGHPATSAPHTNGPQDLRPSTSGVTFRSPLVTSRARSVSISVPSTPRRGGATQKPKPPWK
The experiment can be described thus: co-IP; HeLa cells transfected with Flag empty vector or Flag-RITA; lysates in RIPA buffer (600-800 µg); Flag-M2 affinity gel, 4 °C overnight, washed three times; western blot.

No constants are given. Whether binding was seen depends on the method and setting. Binding seen in cells or lysates may run through a third protein. Some entries that bind do so weakly or less than the wild type. Where a sequence is shown, tags or fusion partners need not be part of it.

B1: lipoma-preferred partner (LPP), endogenous in HeLa (protein, UniProt Q93052 1-612)
chain: MSHPSWLPPKSTGEPLGHVPARMETTHSFGNPSISVSTQQPPKKFAPVVAPKPKYNPYKQPGGEGDFLPPPPPPLDDSSALPSISGNFPPPPPLDEEAFKVQGNPGGKTLEERRSSLDAEIDSLTSILADLECSSPYKPRPPQSSTGSTASPPVSTPVTGHKRMVIPNQPPLTATKKSTLKPQPAPQAGPIPVAPIGTLKPQPQPVPASYTTASTSSRPTFNVQVKSAQPSPHYMAAPSSGQIYGSGPQGYNTQPVPVSGQCPPPSTRGGMDYAYIPPPGLQPEPGYGYAPNQGRYYEGYYAAGPGYGGRNDSDPTYGQQGHPNTWKREPGYTPPGAGNQNPPGMYPVTGPKKTYITDPVSAPCAPPLQPKGGHSGQLGPSSVAPSFRPEDELEHLTKKMLYDMENPPADEYFGRCARCGENVVGEGTGCTAMDQVFHVDCFTCIICNNKLRGQPFYAVEKKAYCEPCYINTLEQCNVCSKPIMERILRATGKAYHPHCFTCVMCHRSLDGIPFTVDAGGLIHCIEDFHKKFAPRCSVCKEPIMPAPGQEETVRIVALDRDFHVHCYRCEDCGGLLSEGDNQGCYPLDGHILCKTCNSARIRVLTAKASTDL
On to B1, for which the binding entry is on record as “binds”.
